These are yes or no findings as the source states them, for the method shown. In cells and extracts the contact can be indirect. Here binding means that the protein was enriched with, or labelled near, the bait; the list need not be complete.
Target: P-glycoprotein (human), as expressed on NIH 3T3 MDR1 cells (human) (UniProt P08183)
Assay: affinity purification with mass spectrometry; Pgp enriched with 15D3 or UIC2 mAb on Protein G magnetic beads from membrane preparations of NIH 3T3 MDR1 cells; nine washes with RIPA buffer; cross-linked with DSSO or BS2Gd0/d4 on living cells before, or with DSSO on-bead after immunoprecipitation; on-bead trypsin digestion, LC-MS/MS; proteins found with Pgp

By UniProt entry, the sequences of proteins in these tests, tags left out.
UniProt P08183: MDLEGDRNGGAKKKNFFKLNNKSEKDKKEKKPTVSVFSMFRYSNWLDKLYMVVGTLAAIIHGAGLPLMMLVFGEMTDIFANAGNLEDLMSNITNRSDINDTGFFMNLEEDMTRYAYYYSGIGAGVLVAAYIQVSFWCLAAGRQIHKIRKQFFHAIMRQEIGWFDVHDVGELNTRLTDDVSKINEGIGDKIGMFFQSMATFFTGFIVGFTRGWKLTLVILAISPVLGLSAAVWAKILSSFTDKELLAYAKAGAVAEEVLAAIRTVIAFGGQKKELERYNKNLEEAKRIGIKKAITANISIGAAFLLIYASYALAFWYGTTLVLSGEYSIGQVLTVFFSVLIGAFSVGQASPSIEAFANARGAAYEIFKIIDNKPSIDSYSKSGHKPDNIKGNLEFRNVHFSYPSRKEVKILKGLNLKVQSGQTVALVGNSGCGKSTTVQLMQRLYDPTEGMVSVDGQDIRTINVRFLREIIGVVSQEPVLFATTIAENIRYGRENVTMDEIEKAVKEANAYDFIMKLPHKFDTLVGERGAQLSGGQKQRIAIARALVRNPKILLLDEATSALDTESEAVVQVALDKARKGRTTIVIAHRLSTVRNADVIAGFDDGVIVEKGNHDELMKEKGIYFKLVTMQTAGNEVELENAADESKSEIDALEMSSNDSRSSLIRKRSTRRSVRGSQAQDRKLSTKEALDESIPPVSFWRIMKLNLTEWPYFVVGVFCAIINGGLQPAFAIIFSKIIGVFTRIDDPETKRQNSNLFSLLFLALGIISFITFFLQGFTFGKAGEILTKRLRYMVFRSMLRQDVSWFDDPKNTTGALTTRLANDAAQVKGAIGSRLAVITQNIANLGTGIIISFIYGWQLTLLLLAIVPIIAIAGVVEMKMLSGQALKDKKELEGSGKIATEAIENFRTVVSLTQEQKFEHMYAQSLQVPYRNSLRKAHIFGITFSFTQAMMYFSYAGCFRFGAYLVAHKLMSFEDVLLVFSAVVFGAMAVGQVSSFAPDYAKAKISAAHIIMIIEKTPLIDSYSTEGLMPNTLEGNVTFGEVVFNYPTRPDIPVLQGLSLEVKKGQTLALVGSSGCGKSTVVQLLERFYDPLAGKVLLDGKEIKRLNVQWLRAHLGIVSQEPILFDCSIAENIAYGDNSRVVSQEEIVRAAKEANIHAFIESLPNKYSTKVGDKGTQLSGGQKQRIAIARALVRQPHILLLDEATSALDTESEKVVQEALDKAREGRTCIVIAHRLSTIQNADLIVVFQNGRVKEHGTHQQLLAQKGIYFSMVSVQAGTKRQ

binding: binds
B1: caveolae-associated protein 1 (protein, UniProt O54724 1-392)
chain: MEDVTLHIVERPYSGFPDASSEGPEPTQGEARATEEPSGTGSDELIKSDQVNGVLVLSLLDKIIGAVDQIQLTQAQLEERQAEMEGAVQSIQGELSKLGKAHATTSNTVSKLLEKVRKVSVNVKTVRGSLERQAGQIKKLEVNEAELLRRRNFKVMIYQDEVKLPAKLSVSKSLKESEALPEKEGDELGEGERPEDDTAAIELSSDEAVEVEEVIEESRAERIKRSGLRRVDDFKKAFSKEKMEKTKVRTRENLEKTRLKTKENLEKTRHTLEKRMNKLGTRLVPVERREKLKTSRDKLRKSFTPDHVVYARSKTAVYKVPPFTFHVKKIREGEVEVLKATEMVEVGPEDDEVGAERGEATDLLRGSSPDVHTLLEITEESDAVLVDKSDSD
